This is an account of results in article PMC9681780.

The experiment deals with T1, PRSS22 wild type with C-terminal Flag tag (pcDNA3.1-PRSS22) (human) (UniProt Q9GZN4).
T1 sequence: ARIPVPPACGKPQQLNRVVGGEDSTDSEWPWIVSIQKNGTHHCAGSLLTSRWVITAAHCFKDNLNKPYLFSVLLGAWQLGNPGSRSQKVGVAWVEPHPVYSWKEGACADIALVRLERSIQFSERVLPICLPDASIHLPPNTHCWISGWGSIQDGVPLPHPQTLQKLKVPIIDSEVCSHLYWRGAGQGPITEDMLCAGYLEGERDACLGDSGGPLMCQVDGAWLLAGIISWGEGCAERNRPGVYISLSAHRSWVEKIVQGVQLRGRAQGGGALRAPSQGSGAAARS
The experiment is described as follows: co-IP; Co-IP from BC cells followed by Western blot (Fig. 4G); PRSS22-Flag precipitated with Flag Tag Immunomagnetic Beads.

No constants are given. Whether binding was seen depends on the method and setting. In cells and extracts the contact can be indirect. Some results given as binding are weak or reduced against the parent protein; the word gives no strength. Where a sequence is shown, tags or fusion partners need not be part of it.

B1: ANXA1 (Annexin A1) (protein, UniProt P04083 1-346)
chain: MAMVSEFLKQAWFIENEEQEYVQTVKSSKGGPGSAVSPYPTFNPSSDVAALHKAIMVKGVDEATIIDILTKRNNAQRQQIKAAYLQETGKPLDETLKKALTGHLEEVVLALLKTPAQFDADELRAAMKGLGTDEDTLIEILASRTNKEIRDINRVYREELKRDLAKDITSDTSGDFRNALLSLAKGDRSEDFGVNEDLADSDARALYEAGERRKGTDVNVFNTILTTRSYPQLRRVFQKYTKYSKHDMNKVLDLELKGDIEKCLTAIVKCATSKPAFFAEKLHQAMKGVGTRHKALIRIMVSRSEIDMNDIKAFYQKMYGISLCQAILDETKGDYEKILVALCGGN
Turning to B1, the binding result is listed as “binds”.
